Assay results: PubChem BioAssay AID1259415 (National Center for Advancing Translational Sciences (NCATS), 2018)
“And” between values parts separate entries of the source, which are not always exact repeats. Identical values can stand only once. Screen size: about 410,000 compounds; about 18,000 (4.4%) were called active. Inconclusive means that the source gave no clear call. Such entries were picked first, then a sample of the others. No stated cut-off is given here; in the data, active means activity change below about -60%; inconclusive means no clear call, values can overlap the other calls; inactive means above about -39%. Some compounds were tested as several samples or in several runs, with calls that do not always agree.

Assay: qHTS Assay for inhibitors of the human cytomegalovirus (HCMV)
Conditions: HFF cells, HCMV-luciferase reporter, 72 h; at 57.5 µM; stronger effect = lower value
Procedure, shortened: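 After 16 h attachment at 37C, HFF cells received test compound and HCMV-luciferase (1 PFU/cell); reporter luminescence read 72 h later, data normalized against buffer-only and known inhibitor Salinomycin.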
On the % scale 0 is the no-effect control and ±100 the full control effect.

**Q.** For CC(C)(C)c1nc(SCC(=O)NCc2ccco2)c2ccccc2n1, which activity change, negative = inhibition is on record?
**A.** active: -88.4%

**Q.** For Cc1cc(O)c(C(=O)/C=C/c2ccccc2Br)c(=O)o1, which activity change, negative = inhibition is on record?
**A.** active: -87.3%

**Q.** Which activity change, negative = inhibition does the source give for COc1ccc(C2c3c(ncn(CCN4CCOCC4)c3=N)Oc3ccc4ccccc4c32)cc1 (stereo unspecified) here?
**A.** inconclusive: -46.4%

**Q.** For O=C(C[N+]12CCC(CC1)C(CO)C2)c1ccc(Br)cc1 (stereo unspecified), which activity change, negative = inhibition is on record?
**A.** inconclusive: -54%

**Q.** Which activity change, negative = inhibition does the source give for O=C(Nc1ccc(F)cc1)Oc1ccc[nH]c1=O here?
**A.** inconclusive: -49.1%

**Q.** With COC(=O)Cn1cnc2scc(-c3ccc(C)c(C)c3)c2c1=O as the compound, how does the activity change, negative = inhibition read?
**A.** inactive: -22.1%

**Q.** With S=C(c1ccc(-c2ccc(Cl)cc2Cl)o1)N1CCCC1 as the compound, how does the activity change, negative = inhibition read?
**A.** inconclusive: -45%

**Q.** With Cc1ccc(Cn2ccnc2SCC(=O)Nc2ccc3c(c2)OCCO3)cc1 as the compound, how does the activity change, negative = inhibition read?
**A.** inconclusive: -44.7%

**Q.** With CC(=O)Nc1cccc(NC(=O)CSc2nccn2Cc2ccco2)c1 as the compound, how does the activity change, negative = inhibition read?
**A.** inactive: 56.8% and active: -70.4%

**Q.** With COc1ccc(NC(=S)Nc2ccc(C)c(Cl)c2)cc1OC as the compound, how does the activity change, negative = inhibition read?
**A.** inconclusive: -60%

**Q.** Which activity change, negative = inhibition does the source give for Cc1ccc(NC(=O)c2ccc3c(c2)NC(=O)c2ccccc2S3)cc1 here?
**A.** active: -71.3%

**Q.** For COC(=O)c1ccc(CNCC(=O)Nc2ccc(C(=O)OC)cc2)cc1, which activity change, negative = inhibition is on record?
**A.** inactive: 8.53%

**Q.** Which activity change, negative = inhibition does the source give for CSc1ccc(C2c3[nH]c4ccccc4c3CCN2C(=O)CCC2CCCC2)cc1 (stereo unspecified) here?
**A.** active: -77.9%

**Q.** Which activity change, negative = inhibition does the source give for COc1ccc(NC(=O)CC2C(=O)N(C)C(=S)N2CCc2ccccc2F)cc1 (stereo unspecified) here?
**A.** inconclusive: -59.2%

**Q.** Which activity change, negative = inhibition does the source give for CC(C)c1ccc(/C=C/C(=O)NC2CCCCC2)cc1 here?
**A.** inconclusive: -40.5%

**Q.** With CC[C@@]12C(=O)N(c3cccc(F)c3)C(=O)N1[C@H](c1ccc(Cl)cc1)[C@@H]1C(=O)N(C3CCCCC3)C(=O)[C@@H]12 as the compound, how does the activity change, negative = inhibition read?
**A.** inconclusive: -49.8%

**Q.** With CC(C)(CCC(=S)N1CCOCC1)c1ccccc1 as the compound, how does the activity change, negative = inhibition read?
**A.** inconclusive: -56.6%

**Q.** With O=C(O)c1cccnc1Sc1ncnc2sc3c(c12)CCC3 as the compound, how does the activity change, negative = inhibition read?
**A.** inconclusive: -43.8%

**Q.** For COc1ccc(/C=C2/SC(=S)N(CCCC(=O)Nc3ccc(O)cc3)C2=O)cc1OC, which activity change, negative = inhibition is on record?
**A.** active: -73.1%

**Q.** Which activity change, negative = inhibition does the source give for COc1ccccc1NC(=O)COC(=O)CC(C)(C)CC1=NS(=O)(=O)c2ccccc2N1 here?
**A.** inconclusive: -41.2%

**Q.** For CCN(CC(=O)Nc1c(F)cccc1F)C(=O)/C=C/c1ccc(Br)s1, which activity change, negative = inhibition is on record?
**A.** inactive: -16.8%

**Q.** Which activity change, negative = inhibition does the source give for O=C(CN(c1cccc(C(F)(F)F)c1)S(=O)(=O)c1ccccc1)Nc1cccc(Cl)c1 here?
**A.** active: -66.2%

**Q.** With CC1CN(C(NC(=O)c2ccccc2)C(Cl)(Cl)Cl)CC(C)O1 (stereo unspecified) as the compound, how does the activity change, negative = inhibition read?
**A.** inactive: 6.64%

**Q.** Which activity change, negative = inhibition does the source give for CCCN(C(=O)c1cc(S(=O)(=O)N(C)c2ccc(OCC)cc2)ccc1C)C1CCS(=O)(=O)C1 (stereo unspecified) here?
**A.** inactive: 0%

**Q.** Which activity change, negative = inhibition does the source give for O=C(Nc1ccc(S(=O)(=O)NC2=NCCCCC2)cc1)c1ccc(Cl)cc1Cl here?
**A.** inconclusive: -44.1%

**Q.** Which activity change, negative = inhibition does the source give for COc1ccc(NC(=O)C2CC(c3ccccc3O)=NO2)cc1OC (stereo unspecified) here?
**A.** inconclusive: -42.9%

**Q.** Which activity change, negative = inhibition does the source give for CCOc1ccc2nc(NC(=O)c3ccccn3)sc2c1 here?
**A.** active: -99.8%

**Q.** With CS(=O)(=O)N(CC(=O)Nc1ccccc1C(=O)NCc1ccccc1)c1ccc2c(c1)OCCO2 as the compound, how does the activity change, negative = inhibition read?
**A.** inactive: -4.24%

**Q.** With O=C(Nc1ccc(Cl)cn1)C1CCN(S(=O)(=O)c2cccs2)CC1 as the compound, how does the activity change, negative = inhibition read?
**A.** active: -72.4%

**Q.** With COc1cc(S(=O)(=O)n2ccnc2C(C)C)ccc1Br as the compound, how does the activity change, negative = inhibition read?
**A.** inactive: 3.29%

**Q.** With COc1ccc(N2CCN(CC(O)c3c[nH]c4ccc(OC)cc34)CC2C)cc1 (stereo unspecified) as the compound, how does the activity change, negative = inhibition read?
**A.** inconclusive: -59.9%

**Q.** With COc1ccc(-c2noc(COc3ccc(Cl)c(C)c3)n2)cc1 as the compound, how does the activity change, negative = inhibition read?
**A.** inconclusive: -47.5%

**Q.** With Cc1c(N)c(=O)n(-c2ccccc2)n1C as the compound, how does the activity change, negative = inhibition read?
**A.** inconclusive: -54.8%

**Q.** For Cc1ccc(NC(=O)CCCN2C(=O)COc3ccc(C)cc32)c(C)c1, which activity change, negative = inhibition is on record?
**A.** inactive: -2.31%

**Q.** With Cc1ccc(NC(=O)C(=O)NCCN2CCN(Cc3ccc([N+](=O)[O-])cc3)CC2)cc1 as the compound, how does the activity change, negative = inhibition read?
**A.** inactive: 3.36%

**Q.** With COc1cc(C(O)c2nc(-c3ccccc3OC)cs2)ccc1F (stereo unspecified) as the compound, how does the activity change, negative = inhibition read?
**A.** inconclusive: -59.1%

**Q.** For O=c1[nH]c(C2CCN(S(=O)(=O)c3ccc4c(c3)OCCO4)CC2)nc2c1nnn2Cc1ccc(F)cc1, which activity change, negative = inhibition is on record?
**A.** inconclusive: -42.7%

**Q.** For CCC(=O)N1CCN(c2nc3c(C)cccc3s2)CC1, which activity change, negative = inhibition is on record?
**A.** inactive: -2.18%

**Q.** For CCOc1ccc(N2C(=O)CC(NCCNc3ccc(C(=O)c4cccs4)cc3)C2=O)cc1 (stereo unspecified), which activity change, negative = inhibition is on record?
**A.** inactive: -28.7%

**Q.** Which activity change, negative = inhibition does the source give for CC1CCCCC1NS(=O)(=O)c1ccc(S(=O)(=O)N2CCN(CCC#N)CC2)cc1 (stereo unspecified) here?
**A.** inactive: 6.1%

**Q.** Which activity change, negative = inhibition does the source give for Cn1c(CCN2CCCCC2)nc2cc(NC(=O)Nc3ccccc3)ccc21 here?
**A.** inconclusive: -49.5%

**Q.** Which activity change, negative = inhibition does the source give for COc1ccc(-c2[nH]ncc2CNCc2cc(C)n(C)n2)c(F)c1 here?
**A.** inconclusive: -46.4%

**Q.** Which activity change, negative = inhibition does the source give for CCCn1c2ccccc2c2cnn(CC(=O)NC(C)CC)c(=O)c21 (stereo unspecified) here?
**A.** inconclusive: -43.6%

**Q.** Which activity change, negative = inhibition does the source give for Cc1cc(C)cc(NC(=S)N=Nc2c(O)n(C)c3ccc(S(=O)(=O)N4CCOCC4)cc23)c1 here?
**A.** inconclusive: -42.1%

**Q.** For Cc1[nH]c2c(C)cccc2c1CCNC(=O)C1CCCCC1C(=O)OCC(F)(F)F (stereo unspecified), which activity change, negative = inhibition is on record?
**A.** inconclusive: -50.6%

**Q.** Which activity change, negative = inhibition does the source give for CCOc1cccc(C(=O)Nc2cccc(-c3nc4ncccc4o3)c2C)c1 here?
**A.** inconclusive: -43.4%

**Q.** With COC(=O)CCC(NC(=O)c1cc(C)oc1C)C(=O)OC (stereo unspecified) as the compound, how does the activity change, negative = inhibition read?
**A.** inconclusive: -48.2%

**Q.** Which activity change, negative = inhibition does the source give for Cc1cc(C)c2c(=O)n3c(nc2c1)C(Cc1ccccc1)NC(=O)c1cccnc1-3 (stereo unspecified) here?
**A.** inconclusive: -55.3%

**Q.** Which activity change, negative = inhibition does the source give for Oc1c(Cl)cc(Cl)cc1/C=N/Nc1ncc(Br)cn1 here?
**A.** active: -94.4%

**Q.** For O=C(Nc1ccccc1)c1ccccc1NS(=O)(=O)c1ccc(Cl)s1, which activity change, negative = inhibition is on record?
**A.** active: -63.8%

**Q.** Which activity change, negative = inhibition does the source give for COC(=O)c1c(-c2cccs2)csc1NC(=O)COc1ccccc1 here?
**A.** inactive: -22%

**Q.** Which activity change, negative = inhibition does the source give for COc1ccc(C2C(=O)N(C3CCCCCC3)CC(=O)N2Cc2ccccc2)cc1 (stereo unspecified) here?
**A.** active: -67.3%

**Q.** With Fc1ccc(CNC(=S)NC2CCCC2)cc1 as the compound, how does the activity change, negative = inhibition read?
**A.** inconclusive: -59.4%

**Q.** For CCCn1c(=S)[nH]c2cc(C(=O)N3CCc4ccccc4C3)ccc2c1=O, which activity change, negative = inhibition is on record?
**A.** inconclusive: -46.8%

**Q.** For CCc1ccc(-c2cn3nc(C)c(C)nc3n2)cc1, which activity change, negative = inhibition is on record?
**A.** active: -86.9%

**Q.** With O=C(CNc1ccccc1)Nc1cccc2ccccc12 as the compound, how does the activity change, negative = inhibition read?
**A.** inactive: 16.4%
